Experimental data from paper PMC10711645.
Results are given in words; binding and its absence hold for the method and conditions named. In cells and extracts the contact can be indirect. Some results given as binding are weak or reduced against the parent protein; the word gives no strength.

By UniProt entry, the sequences of proteins in these tests, tags left out.
UniProt O00425: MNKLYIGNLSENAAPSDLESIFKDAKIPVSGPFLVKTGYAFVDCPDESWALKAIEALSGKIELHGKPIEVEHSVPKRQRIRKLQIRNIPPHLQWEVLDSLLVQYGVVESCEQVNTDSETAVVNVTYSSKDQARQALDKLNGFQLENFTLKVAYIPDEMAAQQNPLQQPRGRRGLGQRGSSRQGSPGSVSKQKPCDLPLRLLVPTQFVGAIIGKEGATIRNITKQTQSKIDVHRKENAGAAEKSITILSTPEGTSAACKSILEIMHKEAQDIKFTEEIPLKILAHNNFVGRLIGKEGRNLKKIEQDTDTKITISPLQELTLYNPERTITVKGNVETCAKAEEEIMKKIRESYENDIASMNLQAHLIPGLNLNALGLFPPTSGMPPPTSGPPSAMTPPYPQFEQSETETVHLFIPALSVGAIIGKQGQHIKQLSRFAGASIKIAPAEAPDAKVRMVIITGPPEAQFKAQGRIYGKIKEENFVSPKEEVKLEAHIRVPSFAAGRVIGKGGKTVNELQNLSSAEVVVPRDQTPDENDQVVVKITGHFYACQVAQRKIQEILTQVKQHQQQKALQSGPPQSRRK
UniProt Q15717: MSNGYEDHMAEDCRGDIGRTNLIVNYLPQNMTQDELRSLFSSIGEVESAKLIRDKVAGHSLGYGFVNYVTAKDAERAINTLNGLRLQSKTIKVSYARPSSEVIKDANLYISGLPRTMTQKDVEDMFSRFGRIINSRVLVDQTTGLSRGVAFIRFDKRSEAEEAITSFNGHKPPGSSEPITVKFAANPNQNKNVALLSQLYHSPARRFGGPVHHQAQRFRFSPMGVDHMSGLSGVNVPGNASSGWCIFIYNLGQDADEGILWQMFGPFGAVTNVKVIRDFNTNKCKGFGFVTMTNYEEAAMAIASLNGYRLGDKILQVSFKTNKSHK
UniProt P11940: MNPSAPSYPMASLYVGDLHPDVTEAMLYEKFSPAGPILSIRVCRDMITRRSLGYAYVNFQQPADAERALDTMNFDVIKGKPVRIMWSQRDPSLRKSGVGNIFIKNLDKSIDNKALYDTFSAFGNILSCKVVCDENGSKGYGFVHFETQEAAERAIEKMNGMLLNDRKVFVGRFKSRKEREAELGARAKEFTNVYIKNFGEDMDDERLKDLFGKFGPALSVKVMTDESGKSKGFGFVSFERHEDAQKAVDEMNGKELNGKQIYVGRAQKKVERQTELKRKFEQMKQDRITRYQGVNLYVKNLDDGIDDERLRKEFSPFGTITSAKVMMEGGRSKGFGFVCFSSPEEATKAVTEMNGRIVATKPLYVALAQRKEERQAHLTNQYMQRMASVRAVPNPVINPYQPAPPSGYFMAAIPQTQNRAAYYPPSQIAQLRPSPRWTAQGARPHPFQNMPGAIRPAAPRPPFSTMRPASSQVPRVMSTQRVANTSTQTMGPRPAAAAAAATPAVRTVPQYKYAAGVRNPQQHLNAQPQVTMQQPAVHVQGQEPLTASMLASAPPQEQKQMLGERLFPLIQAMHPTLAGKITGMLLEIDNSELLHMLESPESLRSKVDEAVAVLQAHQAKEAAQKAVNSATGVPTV

B1: Matrin3 (protein, UniProt P43243 1-847)
chain: MSKSFQQSSLSRDSQGHGRDLSAAGIGLLAAATQSLSMPASLGRMNQGTARLASLMNLGMSSSLNQQGAHSALSSASTSSHNLQSIFNIGSRGPLPLSSQHRGDADQASNILASFGLSARDLDELSRYPEDKITPENLPQILLQLKRRRTEEGPTLSYGRDGRSATREPPYRVPRDDWEEKRHFRRDSFDDRGPSLNPVLDYDHGSRSQESGYYDRMDYEDDRLRDGERCRDDSFFGETSHNYHKFDSEYERMGRGPGPLQERSLFEKKRGAPPSSNIEDFHGLLPKGYPHLCSICDLPVHSNKEWSQHINGASHSRRCQLLLEIYPEWNPDNDTGHTMGDPFMLQQSTNPAPGILGPPPPSFHLGGPAVGPRGNLGAGNGNLQGPRHMQKGRVETSRVVHIMDFQRGKNLRYQLLQLVEPFGVISNHLILNKINEAFIEMATTEDAQAAVDYYTTTPALVFGKPVRVHLSQKYKRIKKPEGKPDQKFDQKQELGRVIHLSNLPHSGYSDSAVLKLAEPYGKIKNYILMRMKSQAFIEMETREDAMAMVDHCLKKALWFQGRCVKVDLSEKYKKLVLRIPNRGIDLLKKDKSRKRSYSPDGKESPSDKKSKTDGSQKTESSTEGKEQEEKSGEDGEKDTKDDQTEQEPNMLLESEDELLVDEEEAAALLESGSSVGDETDLANLGDVASDGKKEPSDKAVKKDGSASAAAKKKLKKVDKIEELDQENEAALENGIKNEENTEPGAESSENADDPNKDTSENADGQSDENKDDYTIPDEYRIGPYQPNVPVGIDYVIPKTGFYCKLCSLFYTNEEVAKNTHCSSLPHYQKLKKFLNKLAEERRQKKET

These molecules were tested against IGF2BP3 (insulin-like growth factor 2 mRNA-binding protein 3) (human (endogenous in 786-O and ACHN)) (UniProt O00425) (assay: co-IP; lysates of 786-O and ACHN cells (circRARS knocked down or overexpressed) in IP lysis buffer with protease inhibitor; anti-IGF2BP3 antibody (1:100) at 4°C overnight, IgG as negative control; protein A/G magnetic beads 2 h at 4°C; SDS-PAGE and blot).
With HuR (from UniProt Q15717 1-326) the binding was “binds”. For pAbPC1 (from UniProt P11940 1-636), the binding was “binds”. With B1 the binding was “binds”.
